Assay results published in publication PMC7090148 (2020).
Positions count from the first letter of the chain named. These are yes or no findings as the source states them, for the method shown. Binding seen in cells or lysates may run through a third protein. Some binding calls cover weakened binding; strength is not graded here. Sequences can lack the tags named with a protein.

Tests used:
Mouse OFD1 S75F (mouse) = molecular target: T1, Mouse OFD1 S75F (mouse) (UniProt Q80Z25); assay: co-IP; OFD1 mutants co-expressed with TRAPPC8 or TRAPPC12; IP efficiency as ratio of immunoprecipitated TRAPPC8/OFD1 or TRAPPC12/OFD1; cell line and IP antibody not stated for this panel
T1 sequence: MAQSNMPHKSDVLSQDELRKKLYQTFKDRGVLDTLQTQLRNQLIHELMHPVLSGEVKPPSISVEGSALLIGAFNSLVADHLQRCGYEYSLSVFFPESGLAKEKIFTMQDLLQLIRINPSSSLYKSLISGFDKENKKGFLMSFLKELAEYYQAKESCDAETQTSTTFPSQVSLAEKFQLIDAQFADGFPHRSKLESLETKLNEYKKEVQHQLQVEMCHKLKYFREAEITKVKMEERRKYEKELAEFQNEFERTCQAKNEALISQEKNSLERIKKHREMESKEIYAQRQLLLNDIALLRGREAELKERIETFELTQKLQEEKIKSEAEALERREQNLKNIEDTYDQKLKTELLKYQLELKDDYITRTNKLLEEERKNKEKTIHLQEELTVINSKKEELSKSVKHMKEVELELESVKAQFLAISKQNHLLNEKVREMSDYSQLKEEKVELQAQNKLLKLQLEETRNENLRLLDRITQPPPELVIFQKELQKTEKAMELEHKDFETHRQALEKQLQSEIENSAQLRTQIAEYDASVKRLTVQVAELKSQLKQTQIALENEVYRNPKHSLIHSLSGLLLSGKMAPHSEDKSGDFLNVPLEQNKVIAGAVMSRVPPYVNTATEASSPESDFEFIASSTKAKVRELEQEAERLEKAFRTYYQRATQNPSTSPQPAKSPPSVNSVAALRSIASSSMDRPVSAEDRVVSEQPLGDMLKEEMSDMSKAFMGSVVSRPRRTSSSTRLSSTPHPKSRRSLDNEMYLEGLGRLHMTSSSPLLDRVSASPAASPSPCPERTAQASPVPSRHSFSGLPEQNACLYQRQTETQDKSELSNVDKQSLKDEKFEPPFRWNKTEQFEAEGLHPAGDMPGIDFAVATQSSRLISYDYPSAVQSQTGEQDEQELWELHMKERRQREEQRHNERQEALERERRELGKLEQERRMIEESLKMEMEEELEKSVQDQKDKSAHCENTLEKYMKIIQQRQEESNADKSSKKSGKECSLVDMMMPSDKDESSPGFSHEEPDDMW

Mouse OFD1 S437R (mouse) = molecular target: T2, Mouse OFD1 S437R (mouse) (UniProt Q80Z25); assay: as above
T2 sequence: T1 sequence with F73S, S435R

binding (Mouse OFD1 S75F (mouse)): binds | binding (Mouse OFD1 S437R (mouse)): binds
B1: NTAP-tagged TRAPPC12 (protein, UniProt Q8K2L8 1-797)
chain: METAKDGEQSPSEASPSAQAGPENIPEPMSREEESQPLYHEETIDLGGDEFASEENEPTSEGSHNFGDKLNEHMMESVLISDSPNNSEGDVGDLGCLQDVGEPPRGATDHRLPSSTDKEVVDTLSNGSETDGDDTPRDISDMTPDSRASLKEDSTQEDVTSMPALENAATEEVGPKDSLAPREEQTSEVSSNQSSSKDEPLPVCTIFSQATATPSQPHLFLQDGFESQMVKSPSFSSTSETSAKTPPPMVQPSPSLSTFFGDTMSSNSLASDFFDSFTTSTFISVSNPNAGSPVPEKLSSLTAPVGEKSPDSTSPSYSTRMDRSESGVSRAPLDVPESPKPFSQIQAVFAGSDDPFATALSMSEMDRRNDAWLPSQATREVLMSVATQQYGTVFIDKENLTMPGLKFDNIQGDAVKDLMLRFLGEKAAAKRQVLNASSVEQSFVGLKQLISCRNWRAAVDLCGRLLTAHGQGYGKNGLPTSHTTDSLQLWFVRLALLVKLGLFQNAEMEFEPFGNLDQPDLYYEYYPHVYPGRRGSMVPFSMRILHAELQQYLGNPQESLDRLHRVKTVCSKILANLEQGLAEDGGLSSVTQESRQASVQLWRSRLGRVLYSMANCLLLMKDYVLAVDAYLTVIKYYPEQEPQLLSGIGRILLQIGDIKTAEKYFQDVEKVTQKLDGLQGKIMVLMNRAFLYLGQNNFAEAHKFFTEILRMDPTNAVANNNAAVCLLYLGKLKDSLRQLEAMVQQDPRHYLHESVLFNLTTMYELESSRSMQKKQSLLEAVASKEGDSFNTQCLKLA
